The other results are listed elsewhere or left out.
How the values were obtained:
Assay in all cases: log2 fold change, soluble protein after heating vs DMSO (PISA); higher = thermal stabilisation; K562 lysate, 10 uM; active = over 0.2 and 3.5 SD of the protein, either way, in both replicates (recomputed)
[1] = compound: Cc1cn(-c2cc(NC(=O)c3ccc(C)c(Nc4nccc(-c5cccnc5)n4)c3)cc(C(F)(F)F)c2)cn1 [nilotinib]
Procedure, shortened: (§1)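 Dounce homogenisation of K562 pellets in PBS pH 7.4 with 1 mM MgCl2 produced a crude extract, used at 1 mg/mL protein. Exposure to 10 μM compound lasted 30 min, and aliquots were then heated for 3 min across 48°C-58°C, pooled and brought to 0.5% NP-40 at 4°C. The supernatant after 21,000xg for 90 min was quantified by TMTpro 16plex LC-MS/MS with channel sums equalised. Duplicate values are given as log-two fold change in thermal stability relative to solvent controls.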

Protein sequences, listed by entry. Tags and fused reporters are not part of them. Lines headed by an entry give the natural chain unless they say otherwise; changes in a name come on top.
UniProt B5MCY1: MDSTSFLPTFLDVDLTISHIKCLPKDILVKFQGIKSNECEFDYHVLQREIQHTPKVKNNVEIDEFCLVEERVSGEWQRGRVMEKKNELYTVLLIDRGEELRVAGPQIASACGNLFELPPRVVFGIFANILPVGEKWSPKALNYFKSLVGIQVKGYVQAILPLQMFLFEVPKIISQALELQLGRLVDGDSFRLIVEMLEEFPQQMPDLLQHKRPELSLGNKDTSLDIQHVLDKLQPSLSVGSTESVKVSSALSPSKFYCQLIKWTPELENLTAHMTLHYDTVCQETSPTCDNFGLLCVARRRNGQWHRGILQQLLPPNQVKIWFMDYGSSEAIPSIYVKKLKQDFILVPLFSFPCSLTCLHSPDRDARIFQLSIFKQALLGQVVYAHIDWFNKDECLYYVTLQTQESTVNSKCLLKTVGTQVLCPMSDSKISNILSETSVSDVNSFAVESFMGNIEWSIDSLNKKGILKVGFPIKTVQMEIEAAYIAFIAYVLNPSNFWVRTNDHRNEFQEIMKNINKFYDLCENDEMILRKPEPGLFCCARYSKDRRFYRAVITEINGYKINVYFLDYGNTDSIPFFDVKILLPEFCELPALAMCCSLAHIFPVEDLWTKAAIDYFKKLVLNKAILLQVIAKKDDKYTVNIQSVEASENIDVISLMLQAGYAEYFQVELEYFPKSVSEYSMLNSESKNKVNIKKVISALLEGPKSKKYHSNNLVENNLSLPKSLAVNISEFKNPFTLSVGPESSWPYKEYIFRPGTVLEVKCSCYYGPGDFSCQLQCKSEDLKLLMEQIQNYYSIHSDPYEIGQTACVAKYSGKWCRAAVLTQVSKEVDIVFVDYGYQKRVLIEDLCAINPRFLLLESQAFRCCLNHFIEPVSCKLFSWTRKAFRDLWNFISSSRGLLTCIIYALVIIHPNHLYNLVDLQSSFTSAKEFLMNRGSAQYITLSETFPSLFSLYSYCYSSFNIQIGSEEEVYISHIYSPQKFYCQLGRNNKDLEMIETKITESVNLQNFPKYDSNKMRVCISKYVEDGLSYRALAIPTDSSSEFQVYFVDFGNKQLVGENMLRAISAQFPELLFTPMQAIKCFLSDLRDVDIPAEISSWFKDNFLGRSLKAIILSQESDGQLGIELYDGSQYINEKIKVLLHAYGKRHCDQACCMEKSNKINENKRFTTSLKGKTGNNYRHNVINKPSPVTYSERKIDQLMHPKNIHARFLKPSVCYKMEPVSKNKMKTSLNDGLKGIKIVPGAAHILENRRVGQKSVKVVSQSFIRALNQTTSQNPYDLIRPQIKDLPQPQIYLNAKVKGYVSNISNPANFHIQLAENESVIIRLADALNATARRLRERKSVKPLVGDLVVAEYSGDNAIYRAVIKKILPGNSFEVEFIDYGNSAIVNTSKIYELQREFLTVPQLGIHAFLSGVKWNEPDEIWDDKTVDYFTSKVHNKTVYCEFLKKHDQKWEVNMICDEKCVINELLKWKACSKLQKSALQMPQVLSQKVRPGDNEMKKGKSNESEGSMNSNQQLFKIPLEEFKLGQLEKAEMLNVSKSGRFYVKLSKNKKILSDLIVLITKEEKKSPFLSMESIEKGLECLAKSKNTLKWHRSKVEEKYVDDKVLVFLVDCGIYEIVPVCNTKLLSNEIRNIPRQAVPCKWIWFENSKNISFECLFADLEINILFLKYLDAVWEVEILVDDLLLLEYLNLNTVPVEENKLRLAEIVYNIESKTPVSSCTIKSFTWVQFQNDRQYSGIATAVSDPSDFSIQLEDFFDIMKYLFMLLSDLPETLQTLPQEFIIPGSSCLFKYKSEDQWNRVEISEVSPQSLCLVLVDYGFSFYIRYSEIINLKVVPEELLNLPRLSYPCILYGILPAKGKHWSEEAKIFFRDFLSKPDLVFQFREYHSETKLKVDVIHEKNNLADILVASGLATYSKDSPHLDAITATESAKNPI
UniProt Q9UPU7: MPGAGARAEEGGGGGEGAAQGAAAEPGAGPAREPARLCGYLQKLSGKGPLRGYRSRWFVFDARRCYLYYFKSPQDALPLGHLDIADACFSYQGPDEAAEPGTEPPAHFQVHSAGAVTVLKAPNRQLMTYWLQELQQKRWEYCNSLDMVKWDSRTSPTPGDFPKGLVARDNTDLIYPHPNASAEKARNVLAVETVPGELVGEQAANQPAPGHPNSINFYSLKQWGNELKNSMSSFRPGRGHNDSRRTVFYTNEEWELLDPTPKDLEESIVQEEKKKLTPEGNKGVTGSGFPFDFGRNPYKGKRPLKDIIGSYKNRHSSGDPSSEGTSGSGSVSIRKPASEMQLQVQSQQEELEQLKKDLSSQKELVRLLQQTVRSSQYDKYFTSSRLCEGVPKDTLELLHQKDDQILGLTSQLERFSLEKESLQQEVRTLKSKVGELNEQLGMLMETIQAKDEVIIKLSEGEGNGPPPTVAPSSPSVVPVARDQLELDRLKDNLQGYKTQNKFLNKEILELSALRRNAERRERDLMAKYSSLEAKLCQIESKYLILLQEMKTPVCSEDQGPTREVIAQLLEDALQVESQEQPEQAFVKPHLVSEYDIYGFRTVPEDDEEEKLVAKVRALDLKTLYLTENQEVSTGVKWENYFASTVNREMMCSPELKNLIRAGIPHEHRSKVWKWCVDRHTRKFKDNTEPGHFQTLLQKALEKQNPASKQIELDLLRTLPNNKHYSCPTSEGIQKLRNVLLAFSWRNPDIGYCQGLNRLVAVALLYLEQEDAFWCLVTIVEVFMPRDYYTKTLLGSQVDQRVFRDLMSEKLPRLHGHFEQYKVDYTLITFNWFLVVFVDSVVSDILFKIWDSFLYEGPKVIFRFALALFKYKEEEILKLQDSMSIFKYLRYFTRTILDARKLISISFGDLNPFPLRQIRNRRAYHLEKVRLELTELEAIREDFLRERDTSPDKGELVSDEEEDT
UniProt Q9NXF1: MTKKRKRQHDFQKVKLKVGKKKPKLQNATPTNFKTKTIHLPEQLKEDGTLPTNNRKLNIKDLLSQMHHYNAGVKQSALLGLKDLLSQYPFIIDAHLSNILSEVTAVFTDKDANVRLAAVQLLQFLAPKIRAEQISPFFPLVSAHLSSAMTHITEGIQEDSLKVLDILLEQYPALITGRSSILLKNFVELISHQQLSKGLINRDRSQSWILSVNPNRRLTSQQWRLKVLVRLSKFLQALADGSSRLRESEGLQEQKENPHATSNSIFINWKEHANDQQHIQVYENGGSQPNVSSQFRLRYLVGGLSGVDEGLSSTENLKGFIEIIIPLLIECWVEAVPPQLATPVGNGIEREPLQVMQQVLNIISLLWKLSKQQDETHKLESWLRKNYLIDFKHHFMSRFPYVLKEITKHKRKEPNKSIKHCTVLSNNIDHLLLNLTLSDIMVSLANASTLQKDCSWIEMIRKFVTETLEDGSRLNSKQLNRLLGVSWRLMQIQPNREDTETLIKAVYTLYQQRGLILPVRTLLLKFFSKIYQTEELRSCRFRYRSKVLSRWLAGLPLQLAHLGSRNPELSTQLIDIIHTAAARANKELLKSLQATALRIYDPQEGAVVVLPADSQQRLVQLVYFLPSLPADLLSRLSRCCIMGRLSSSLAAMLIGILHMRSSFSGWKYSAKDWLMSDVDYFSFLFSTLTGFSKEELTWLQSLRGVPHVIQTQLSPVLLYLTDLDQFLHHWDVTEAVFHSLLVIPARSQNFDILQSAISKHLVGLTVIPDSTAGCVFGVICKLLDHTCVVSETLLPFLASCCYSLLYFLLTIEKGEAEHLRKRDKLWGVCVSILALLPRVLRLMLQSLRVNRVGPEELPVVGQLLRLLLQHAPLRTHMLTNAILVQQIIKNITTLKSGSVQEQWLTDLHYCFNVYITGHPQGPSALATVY
UniProt A6NFQ2: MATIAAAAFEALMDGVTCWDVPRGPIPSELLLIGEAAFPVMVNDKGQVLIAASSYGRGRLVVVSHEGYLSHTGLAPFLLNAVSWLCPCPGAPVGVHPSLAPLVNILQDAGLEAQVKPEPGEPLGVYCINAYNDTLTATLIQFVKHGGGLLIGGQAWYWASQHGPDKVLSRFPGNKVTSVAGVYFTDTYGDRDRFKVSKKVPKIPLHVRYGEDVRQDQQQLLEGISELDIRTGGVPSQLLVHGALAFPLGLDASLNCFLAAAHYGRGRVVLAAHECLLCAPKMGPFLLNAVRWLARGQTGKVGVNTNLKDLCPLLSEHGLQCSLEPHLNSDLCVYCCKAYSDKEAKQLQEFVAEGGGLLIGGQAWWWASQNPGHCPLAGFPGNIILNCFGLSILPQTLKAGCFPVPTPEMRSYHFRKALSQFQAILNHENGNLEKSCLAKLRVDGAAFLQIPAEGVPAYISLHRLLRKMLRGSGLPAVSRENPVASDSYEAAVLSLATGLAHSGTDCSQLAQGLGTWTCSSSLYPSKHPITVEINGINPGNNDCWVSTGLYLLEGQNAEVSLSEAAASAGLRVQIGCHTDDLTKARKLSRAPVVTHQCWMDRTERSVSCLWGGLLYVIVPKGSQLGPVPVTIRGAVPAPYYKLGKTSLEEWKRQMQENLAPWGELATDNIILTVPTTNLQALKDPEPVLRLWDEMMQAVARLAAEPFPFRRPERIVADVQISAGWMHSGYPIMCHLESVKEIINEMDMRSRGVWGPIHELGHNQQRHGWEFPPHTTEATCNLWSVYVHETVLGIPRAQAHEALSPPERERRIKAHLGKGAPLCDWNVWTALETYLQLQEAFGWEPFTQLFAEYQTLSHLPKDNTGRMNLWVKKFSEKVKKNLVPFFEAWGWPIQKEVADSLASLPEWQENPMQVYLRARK
UniProt O14776: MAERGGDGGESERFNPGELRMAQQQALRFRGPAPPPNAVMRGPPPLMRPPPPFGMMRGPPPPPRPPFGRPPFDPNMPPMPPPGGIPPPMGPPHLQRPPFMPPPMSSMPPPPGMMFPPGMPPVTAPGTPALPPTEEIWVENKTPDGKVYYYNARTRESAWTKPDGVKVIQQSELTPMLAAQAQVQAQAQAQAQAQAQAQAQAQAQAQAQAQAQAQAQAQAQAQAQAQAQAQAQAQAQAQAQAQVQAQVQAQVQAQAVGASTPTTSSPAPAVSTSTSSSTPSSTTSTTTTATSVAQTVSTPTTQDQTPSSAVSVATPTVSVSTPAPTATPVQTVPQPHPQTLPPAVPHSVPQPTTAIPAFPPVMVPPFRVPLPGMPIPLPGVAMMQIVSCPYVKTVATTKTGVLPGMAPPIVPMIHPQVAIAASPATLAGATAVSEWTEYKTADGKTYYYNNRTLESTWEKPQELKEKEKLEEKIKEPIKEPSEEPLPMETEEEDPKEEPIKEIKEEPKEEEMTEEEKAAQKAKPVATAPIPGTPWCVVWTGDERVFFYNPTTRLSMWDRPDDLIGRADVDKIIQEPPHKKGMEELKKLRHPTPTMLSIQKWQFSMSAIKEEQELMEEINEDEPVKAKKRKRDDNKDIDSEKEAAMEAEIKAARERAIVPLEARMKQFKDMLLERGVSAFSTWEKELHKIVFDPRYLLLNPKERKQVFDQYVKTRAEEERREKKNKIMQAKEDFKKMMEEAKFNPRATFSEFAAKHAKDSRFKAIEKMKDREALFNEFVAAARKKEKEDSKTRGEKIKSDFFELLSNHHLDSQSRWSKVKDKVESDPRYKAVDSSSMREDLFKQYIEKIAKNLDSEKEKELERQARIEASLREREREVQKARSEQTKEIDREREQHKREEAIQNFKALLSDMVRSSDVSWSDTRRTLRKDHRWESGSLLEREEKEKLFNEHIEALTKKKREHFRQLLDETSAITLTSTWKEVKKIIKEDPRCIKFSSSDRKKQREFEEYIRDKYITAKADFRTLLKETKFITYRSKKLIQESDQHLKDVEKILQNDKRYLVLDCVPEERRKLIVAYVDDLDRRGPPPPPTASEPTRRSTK
UniProt Q9H5Q4: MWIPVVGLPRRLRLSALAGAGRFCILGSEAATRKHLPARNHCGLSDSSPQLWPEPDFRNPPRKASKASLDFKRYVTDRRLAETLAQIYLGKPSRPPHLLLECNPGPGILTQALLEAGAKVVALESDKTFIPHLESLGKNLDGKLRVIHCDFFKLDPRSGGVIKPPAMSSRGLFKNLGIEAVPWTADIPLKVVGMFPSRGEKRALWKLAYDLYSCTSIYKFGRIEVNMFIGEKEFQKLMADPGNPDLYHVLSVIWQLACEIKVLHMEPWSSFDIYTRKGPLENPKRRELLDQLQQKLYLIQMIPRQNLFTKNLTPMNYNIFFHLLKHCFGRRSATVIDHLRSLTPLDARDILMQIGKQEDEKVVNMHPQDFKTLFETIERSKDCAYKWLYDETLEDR
UniProt P37802: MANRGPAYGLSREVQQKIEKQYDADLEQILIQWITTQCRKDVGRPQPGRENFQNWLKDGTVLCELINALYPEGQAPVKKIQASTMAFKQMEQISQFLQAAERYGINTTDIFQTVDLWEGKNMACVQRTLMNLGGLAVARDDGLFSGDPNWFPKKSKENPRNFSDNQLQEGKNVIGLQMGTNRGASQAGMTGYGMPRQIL

[2] = compound: Cc1nc(Nc2n[nH]c3c2CN(C(=O)N[C@H](CN(C)C)c2ccccc2)C3(C)C)c2sccc2n1
Procedure, shortened: as §1

[3] = compound: Cc1nc(Nc2ncc(C(=O)Nc3c(C)cccc3Cl)s2)cc(N2CCN(CCO)CC2)n1 [dasatinib]
Procedure, shortened: as §1

[4] = compound: Cc1ncc(-c2ccnc(Nc3ccc(S(C)(=O)=O)cc3)n2)n1C(C)C
Procedure, shortened: as §1

[5] = compound: Cn1cc(-c2ccc3c(c2)CCN3C(=O)Cc2cccc(C(F)(F)F)c2)c2c(N)ncnc21
Procedure, shortened: as §1

[6] = compound: Cn1cc(CNCC2CCN(c3ncc(C(=O)NO)cn3)CC2)c2ccccc21 [quisinostat]
Procedure, shortened: as §1

[7] = compound: Cn1cncc1[C@@](N)(c1ccc(Cl)cc1)c1ccc2c(c1)c(-c1cccc(Cl)c1)cc(=O)n2C [tipifarnib]
Procedure, shortened: as §1

[8] = compound: NC(=O)Nc1cc(-c2cccc(F)c2)sc1C(=O)N[C@H]1CCCNC1
Procedure, shortened: as §1

[9] = compound: NC(=O)c1cnc(N[C@@H]2CCCC[C@@H]2N)nc1Nc1cccc(-n2nccn2)c1
Procedure, shortened: as §1

[10] = compound: NC1(c2ccc(-c3nc4ccn5c(=O)[nH]nc5c4cc3-c3ccccc3)cc2)CCC1
Procedure, shortened: as §1

[11] = compound: NCC(=O)Nc1ccc(-n2nc(C(F)(F)F)cc2-c2ccc3c(ccc4ccccc43)c2)cc1
Procedure, shortened: as §1

[12] = compound: O=C(CCCCCCC(=O)Nc1ccccc1)NO [vorinostat]
Procedure, shortened: as §1

[13] = compound: O=C(O)c1ccc2c(c1)nc(Nc1cccc(Cl)c1)c1ccncc12 [silmitasertib]
Procedure, shortened: as §1

[14] = compound: O=C1NC(=O)C(c2cnc3ccccn23)=C1c1cn2c3c(cc(F)cc13)CN(C(=O)N1CCCCC1)CC2
Procedure, shortened: as §1

[15] = compound: c1cn2cc(-c3ccc4cn[nH]c4c3)nc(Nc3ccc(N4CCOCC4)cc3)c2n1 [entospletinib]
Procedure, shortened: as §1

Row | Target | log2 fold change [1] | log2 fold change [2] | log2 fold change [3] | log2 fold change [4] | log2 fold change [5] | log2 fold change [6] | log2 fold change [7] | log2 fold change [8] | log2 fold change [9] | log2 fold change [10] | log2 fold change [11] | log2 fold change [12] | log2 fold change [13] | log2 fold change [14] | log2 fold change [15]
1 | TEX2 isoform 2 (UniProt Q8IWB9) | inactive: -0.012 | inactive: -0.002 | inactive: 0.018 | inactive: 0.03 | inactive: 0.009 | inactive: -0.017 | inactive: -0.092 | inactive: -0.021 | inactive: 0.056 | inactive: -0.022 | inactive: 0.148 | inactive: -0.042 | inactive: 0.006 | inactive: -0.112 | inactive: 0.016
2 | TAF6L (UniProt Q9Y6J9) | inactive: -0.023 | inactive: 0.012 | inactive: -0.118 | inactive: 0.021 | inactive: 0.056 | inactive: 0.018 | inactive: -0.032 | inactive: 0.094 | inactive: 0.028 | inactive: 0.034 | inactive: -0.022 | inactive: -0.086 | inactive: 0.013 | inactive: -0.033 | inactive: -0.08
3 | TARS1 (UniProt P26639) | inactive: -0.007 | inactive: 0.017 | inactive: 0.024 | inactive: 0.003 | inactive: -0.015 | inactive: 0.027 | inactive: -0.006 | inactive: -0.011 | inactive: -0.006 | inactive: 0.004 | inactive: 0.004 | inactive: 0.049 | inactive: 0.011 | inactive: -0.009 | inactive: 0.013
4 | TESC (UniProt Q96BS2) | inactive: 0.031 | inactive: -0.025 | inactive: 0.053 | inactive: 0.05 | inactive: 0.02 | inactive: 0.012 | inactive: 0.012 | inactive: -0.036 | inactive: -0.035 | inactive: 0.049 | inactive: -0.036 | inactive: 0.058 | inactive: 0.103 | inactive: -0.014 | inactive: -0.111
5 | TDP2 isoform 2 (UniProt O95551) | inactive: -0.029 | inactive: 0.014 | inactive: -0.013 | inactive: 0.006 | inactive: 0.054 | inactive: -0.007 | inactive: 0.012 | inactive: 0 | inactive: 0.011 | inactive: -0.038 | inactive: 0.003 | inactive: -0.1 | inactive: 0 | inactive: -0.015 | inactive: 0.012
6 | TBC1D2 (UniProt Q9BYX2) | inactive: -0.004 | inactive: -0.024 | inactive: 0.027 | inactive: 0.01 | inactive: 0.053 | inactive: -0.131 | inactive: -0.021 | inactive: 0.075 | inactive: 0.01 | inactive: 0.024 | inactive: -0.081 | inactive: 0.002 | inactive: 0 | inactive: 0.071 | inactive: 0.025
7 | TDRD15 (UniProt B5MCY1) | inactive: 0.105 | inactive: -0.083 | inactive: -0.08 | inactive: -0.055 | inactive: -0.04 | inactive: -0.256 | inactive: 0.075 | inactive: 0.008 | inactive: 0.096 | inactive: -0.088 | inactive: 0.134 | inactive: -0.182 | inactive: 0.1 | inactive: 0.051 | inactive: 0.032
8 | TFE3 (UniProt P19532) | inactive: 0.002 | inactive: -0.012 | inactive: -0.034 | inactive: -0.014 | inactive: 0.02 | inactive: 0.092 | inactive: -0.028 | inactive: 0.051 | inactive: -0.029 | inactive: 0.004 | inactive: -0.025 | inactive: 0.021 | inactive: -0.035 | inactive: -0.089 | inactive: -0.026
9 | TBC1D2B (UniProt Q9UPU7) | inactive: -0.019 | inactive: 0.038 | inactive: -0.008 | inactive: -0.07 | inactive: 0.055 | inactive: 0.007 | inactive: -0.087 | inactive: 0.007 | inactive: -0.021 | inactive: 0.006 | inactive: -0.007 | active: -0.249 | inactive: 0.049 | inactive: -0.047 | inactive: -0.061
10 | TBC1D5 isoform 2 (UniProt Q92609) | inactive: 0.011 | inactive: 0.002 | inactive: -0.009 | inactive: -0.016 | inactive: -0.02 | inactive: -0.026 | inactive: -0.036 | inactive: 0.012 | inactive: 0.011 | inactive: -0.007 | inactive: 0.02 | inactive: -0.07 | inactive: 0.034 | inactive: 0.064 | inactive: 0.008
11 | TELO2 (UniProt Q9Y4R8) | inactive: -0.012 | inactive: -0.014 | inactive: -0.082 | inactive: -0.021 | inactive: 0.035 | inactive: -0.057 | inactive: -0.013 | inactive: 0.058 | inactive: 0.003 | inactive: -0.03 | inactive: 0.003 | active: -0.361 | inactive: 0.117 | inactive: 0.011 | inactive: 0.011
12 | TFIP11 (UniProt Q9UBB9) | inactive: 0.004 | inactive: 0.003 | inactive: -0.059 | inactive: 0.035 | inactive: 0.01 | inactive: -0.067 | inactive: -0.005 | inactive: 0.048 | inactive: 0 | inactive: -0.004 | inactive: -0.001 | inactive: -0.06 | inactive: 0.013 | inactive: 0.001 | inactive: 0.067
13 | TBC1D10A (UniProt Q9BXI6) | inactive: -0.056 | inactive: -0.01 | inactive: -0.089 | inactive: 0.024 | inactive: -0.128 | inactive: 0.025 | inactive: -0.009 | inactive: 0.056 | inactive: 0.04 | inactive: -0.041 |  | inactive: -0.191 | inactive: -0.036 | inactive: -0.137 | 
14 | TEX10 (UniProt Q9NXF1) | inactive: -0.148 | inactive: -0.049 | inactive: -0.14 | inactive: 0.048 | inactive: 0.009 | inactive: 0.014 | inactive: 0 | inactive: -0.013 | inactive: 0.058 | inactive: -0.072 | inactive: -0.004 | inactive: -0.042 | inactive: 0.155 | inactive: 0.066 | inactive: 0.014
15 | TCAF2 (UniProt A6NFQ2) | inactive: 0.051 | inactive: 0.004 | inactive: 0.001 | inactive: 0.05 | inactive: 0.042 | inactive: -0.061 | inactive: -0.037 | inactive: 0.047 | inactive: 0.041 | inactive: -0.011 | inactive: 0.019 | active: -0.27 | inactive: 0 | inactive: 0 | inactive: -0.01
16 | TCERG1 (UniProt O14776) | inactive: -0.023 | inactive: -0.017 | inactive: -0.049 | inactive: -0.012 | inactive: 0.004 | inactive: 0.047 | inactive: 0.012 | inactive: 0 | inactive: 0.013 | inactive: 0.06 | inactive: -0.005 | inactive: -0.174 | inactive: 0.016 | inactive: -0.017 | inactive: 0.008
17 | TCAF1 (UniProt Q9Y4C2) | inactive: 0.003 | inactive: 0.017 | inactive: -0.004 | inactive: 0.001 | inactive: 0.061 | inactive: -0.018 | inactive: 0.005 | inactive: 0.037 | inactive: 0.059 | inactive: -0.043 | inactive: -0.006 | inactive: -0.215 | inactive: 0.017 | inactive: 0 | inactive: 0.036
18 | TFB2M (UniProt Q9H5Q4) | inactive: -0.012 | inactive: -0.024 | inactive: -0.028 | inactive: -0.007 | inactive: -0.002 | inactive: 0.037 | inactive: -0.003 | inactive: 0.019 | inactive: 0.039 | inactive: 0.002 | inactive: 0.018 | inactive: -0.121 | inactive: -0.02 | inactive: -0.004 | inactive: 0
19 | TET1 (UniProt Q8NFU7) | inactive: 0.225 | inactive: -0.023 | inactive: -0.047 | inactive: 0.313 | inactive: -0.091 | inactive: -0.582 | inactive: -0.056 | inactive: 0.083 | inactive: 0.048 | inactive: -0.195 | inactive: 0.228 | inactive: 0.308 | inactive: -0.123 | inactive: 0.23 | inactive: -0.025
20 | TAGLN2 isoform 2 (UniProt P37802) | inactive: 0.022 | inactive: -0.025 | inactive: 0.024 | inactive: 0.002 | inactive: -0.014 | inactive: -0.001 | inactive: 0.005 | inactive: -0.012 | inactive: 0.007 | inactive: -0.002 | inactive: -0.003 | inactive: 0.06 | inactive: 0.01 | inactive: 0.008 | inactive: -0.022
21 | TARDBP (UniProt Q13148) | inactive: -0.146 | inactive: -0.079 | inactive: -0.005 | inactive: -0.051 | inactive: 0.007 | inactive: -0.087 | active: -0.554 | inactive: 0.136 | inactive: 0.021 | inactive: 0.027 | inactive: 0.044 | active: -0.44 | inactive: 0.086 | inactive: -0.268 | inactive: -0.027

In a second layout: results already given.
Row,Target,log2 fold change [1],log2 fold change [2],log2 fold change [3],log2 fold change [4],log2 fold change [5],log2 fold change [6],log2 fold change [7],log2 fold change [8],log2 fold change [9],log2 fold change [10],log2 fold change [11],log2 fold change [12],log2 fold change [13],log2 fold change [14],log2 fold change [15]
2,TAF6L (UniProt Q9Y6J9),inactive: -0.023,inactive: 0.012,inactive: -0.118,inactive: 0.021,inactive: 0.056,inactive: 0.018,inactive: -0.032,inactive: 0.094,inactive: 0.028,inactive: 0.034,inactive: -0.022,inactive: -0.086,inactive: 0.013,inactive: -0.033,inactive: -0.08
12,TFIP11 (UniProt Q9UBB9),inactive: 0.004,inactive: 0.003,inactive: -0.059,inactive: 0.035,inactive: 0.01,inactive: -0.067,inactive: -0.005,inactive: 0.048,inactive: 0,inactive: -0.004,inactive: -0.001,inactive: -0.06,inactive: 0.013,inactive: 0.001,inactive: 0.067

— the supplement of paper PMC10849652
